This is one part of the list. Residues, ends and D or L forms follow the SMILES beside them. *: point of attachment. Cbz = O=C(OCc1ccccc1)*
What was measured:
Test in all cases: log2 fold change, soluble protein after heating vs DMSO (PISA); higher = thermal stabilisation; K562 cells, 10 uM, 30 min; active = over 0.2 and 3.5 SD of the protein, either way, in both replicates (recomputed)
erlotinib = compound: C#Cc1cccc(Nc2ncnc3cc(OCCOC)c(OCCOC)cc23)c1 [erlotinib]
Outline: (§1)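 Thermal stability values are relative to control samples and come from duplicates. They are expressed as log2 fold changes. For measurement, K562 cells (2×10^6 cells/mL) received 10 μM compound for 30 min, and aliquots were heated for 3 min over 48°C-58°C, pooled, and extracted at 4°C in PBS with 0.5% NP-40. Soluble protein, the supernatant after 21,000xg for 90 min, was quantified by TMTpro 16plex LC-MS/MS with equalised channel sums.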

Protein sequences, listed by entry. Tags and fused reporters are not part of them. Lines headed by an entry give the natural chain unless they say otherwise; changes in a name come on top.
UniProt Q6ZNB6: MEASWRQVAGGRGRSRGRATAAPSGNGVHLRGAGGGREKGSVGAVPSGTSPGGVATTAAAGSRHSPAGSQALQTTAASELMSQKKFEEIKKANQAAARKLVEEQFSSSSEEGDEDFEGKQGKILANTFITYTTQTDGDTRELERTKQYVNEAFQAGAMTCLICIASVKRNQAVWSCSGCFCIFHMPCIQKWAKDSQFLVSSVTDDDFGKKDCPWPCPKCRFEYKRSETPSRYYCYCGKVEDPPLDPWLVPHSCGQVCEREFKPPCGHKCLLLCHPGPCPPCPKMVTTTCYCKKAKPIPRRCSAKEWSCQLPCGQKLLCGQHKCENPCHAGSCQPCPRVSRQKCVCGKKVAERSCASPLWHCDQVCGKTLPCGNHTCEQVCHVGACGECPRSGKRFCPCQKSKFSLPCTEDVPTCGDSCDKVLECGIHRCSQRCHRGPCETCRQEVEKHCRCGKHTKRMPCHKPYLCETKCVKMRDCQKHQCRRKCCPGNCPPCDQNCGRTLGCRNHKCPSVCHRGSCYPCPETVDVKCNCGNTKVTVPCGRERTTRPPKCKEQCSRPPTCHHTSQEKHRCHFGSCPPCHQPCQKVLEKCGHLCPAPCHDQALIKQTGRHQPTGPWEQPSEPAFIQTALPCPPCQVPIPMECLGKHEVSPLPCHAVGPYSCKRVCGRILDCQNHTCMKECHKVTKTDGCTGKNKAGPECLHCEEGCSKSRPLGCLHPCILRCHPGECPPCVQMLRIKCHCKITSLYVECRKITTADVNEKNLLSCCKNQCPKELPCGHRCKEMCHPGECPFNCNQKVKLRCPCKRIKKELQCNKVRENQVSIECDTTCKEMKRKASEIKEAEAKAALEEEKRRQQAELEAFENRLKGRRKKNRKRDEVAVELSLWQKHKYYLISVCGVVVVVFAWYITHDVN
UniProt O60524: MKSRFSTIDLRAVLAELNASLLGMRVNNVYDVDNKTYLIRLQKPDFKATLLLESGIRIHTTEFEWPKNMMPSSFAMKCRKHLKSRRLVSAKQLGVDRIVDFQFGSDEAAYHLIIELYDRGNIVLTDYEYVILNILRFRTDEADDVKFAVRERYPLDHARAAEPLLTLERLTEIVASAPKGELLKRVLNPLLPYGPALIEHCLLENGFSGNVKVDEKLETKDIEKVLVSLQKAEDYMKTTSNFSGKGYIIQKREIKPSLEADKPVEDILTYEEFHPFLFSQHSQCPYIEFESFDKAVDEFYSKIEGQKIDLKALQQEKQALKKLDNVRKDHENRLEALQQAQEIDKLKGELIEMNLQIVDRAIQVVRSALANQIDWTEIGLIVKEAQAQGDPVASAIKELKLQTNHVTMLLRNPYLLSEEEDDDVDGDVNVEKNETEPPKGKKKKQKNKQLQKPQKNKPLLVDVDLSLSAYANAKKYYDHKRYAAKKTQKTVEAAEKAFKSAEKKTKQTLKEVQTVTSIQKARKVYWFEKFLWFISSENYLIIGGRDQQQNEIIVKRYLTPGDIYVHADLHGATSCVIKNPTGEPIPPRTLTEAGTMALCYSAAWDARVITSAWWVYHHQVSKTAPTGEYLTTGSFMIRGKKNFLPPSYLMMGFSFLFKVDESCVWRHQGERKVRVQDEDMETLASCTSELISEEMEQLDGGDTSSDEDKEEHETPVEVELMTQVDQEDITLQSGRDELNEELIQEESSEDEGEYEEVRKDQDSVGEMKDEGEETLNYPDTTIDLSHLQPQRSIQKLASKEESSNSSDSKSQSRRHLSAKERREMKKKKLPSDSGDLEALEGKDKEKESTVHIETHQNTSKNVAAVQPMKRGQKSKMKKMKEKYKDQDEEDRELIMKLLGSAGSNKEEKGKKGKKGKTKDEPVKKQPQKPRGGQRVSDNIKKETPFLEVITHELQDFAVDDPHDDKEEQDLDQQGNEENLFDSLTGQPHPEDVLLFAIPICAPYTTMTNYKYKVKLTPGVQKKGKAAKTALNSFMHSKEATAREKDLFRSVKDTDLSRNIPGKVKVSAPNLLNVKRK
UniProt Q8TAT6: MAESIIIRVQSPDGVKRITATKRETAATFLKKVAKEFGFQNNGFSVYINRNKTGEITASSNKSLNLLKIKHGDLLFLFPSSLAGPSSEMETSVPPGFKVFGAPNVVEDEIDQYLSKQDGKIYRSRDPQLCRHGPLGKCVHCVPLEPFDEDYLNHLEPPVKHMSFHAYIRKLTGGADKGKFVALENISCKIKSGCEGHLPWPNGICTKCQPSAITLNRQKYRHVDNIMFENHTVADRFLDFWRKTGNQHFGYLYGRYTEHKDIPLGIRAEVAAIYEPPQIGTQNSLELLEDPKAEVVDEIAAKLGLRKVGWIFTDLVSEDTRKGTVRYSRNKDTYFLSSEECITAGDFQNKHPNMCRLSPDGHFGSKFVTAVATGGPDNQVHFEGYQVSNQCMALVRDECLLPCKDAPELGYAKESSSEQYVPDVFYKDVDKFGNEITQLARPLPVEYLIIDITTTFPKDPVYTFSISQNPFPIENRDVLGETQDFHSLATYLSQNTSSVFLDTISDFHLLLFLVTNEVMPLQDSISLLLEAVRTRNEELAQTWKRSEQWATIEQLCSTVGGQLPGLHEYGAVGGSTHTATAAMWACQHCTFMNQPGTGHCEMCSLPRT
UniProt P06748, whole entry, looked up: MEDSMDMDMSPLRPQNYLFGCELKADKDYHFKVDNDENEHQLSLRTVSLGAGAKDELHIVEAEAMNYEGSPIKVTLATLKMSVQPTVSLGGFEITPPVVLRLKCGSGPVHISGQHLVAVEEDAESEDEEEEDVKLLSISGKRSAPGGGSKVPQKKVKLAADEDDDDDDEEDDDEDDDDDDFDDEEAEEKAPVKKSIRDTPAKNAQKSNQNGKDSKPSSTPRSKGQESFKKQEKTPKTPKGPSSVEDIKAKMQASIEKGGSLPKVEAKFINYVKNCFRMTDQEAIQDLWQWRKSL
UniProt Q9UMS0: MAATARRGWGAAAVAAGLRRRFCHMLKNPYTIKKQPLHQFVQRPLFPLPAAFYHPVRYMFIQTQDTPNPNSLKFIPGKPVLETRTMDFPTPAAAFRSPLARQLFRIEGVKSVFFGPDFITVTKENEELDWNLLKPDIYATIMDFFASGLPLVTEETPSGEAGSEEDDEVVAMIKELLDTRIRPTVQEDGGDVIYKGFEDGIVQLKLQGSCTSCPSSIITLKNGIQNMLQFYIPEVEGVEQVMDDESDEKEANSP
UniProt Q96TA1: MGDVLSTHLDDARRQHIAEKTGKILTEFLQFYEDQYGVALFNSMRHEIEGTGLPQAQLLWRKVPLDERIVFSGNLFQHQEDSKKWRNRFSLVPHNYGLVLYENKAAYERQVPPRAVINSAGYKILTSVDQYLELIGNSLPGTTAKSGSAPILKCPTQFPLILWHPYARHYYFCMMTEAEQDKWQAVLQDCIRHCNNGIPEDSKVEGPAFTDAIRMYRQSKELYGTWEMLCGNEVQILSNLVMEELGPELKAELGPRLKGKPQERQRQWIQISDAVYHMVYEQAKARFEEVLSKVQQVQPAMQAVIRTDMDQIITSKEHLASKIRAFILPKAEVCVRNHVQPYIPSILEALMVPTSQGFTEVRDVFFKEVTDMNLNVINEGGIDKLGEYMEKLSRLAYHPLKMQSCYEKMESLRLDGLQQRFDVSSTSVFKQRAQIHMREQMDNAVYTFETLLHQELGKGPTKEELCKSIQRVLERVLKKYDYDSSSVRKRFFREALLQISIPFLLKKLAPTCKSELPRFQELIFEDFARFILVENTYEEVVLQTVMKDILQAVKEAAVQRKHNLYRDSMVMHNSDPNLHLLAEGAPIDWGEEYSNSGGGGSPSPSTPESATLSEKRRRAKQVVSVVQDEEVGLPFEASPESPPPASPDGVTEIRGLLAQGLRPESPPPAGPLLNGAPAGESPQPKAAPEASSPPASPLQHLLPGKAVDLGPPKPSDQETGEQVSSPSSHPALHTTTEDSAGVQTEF
UniProt Q9BPW8: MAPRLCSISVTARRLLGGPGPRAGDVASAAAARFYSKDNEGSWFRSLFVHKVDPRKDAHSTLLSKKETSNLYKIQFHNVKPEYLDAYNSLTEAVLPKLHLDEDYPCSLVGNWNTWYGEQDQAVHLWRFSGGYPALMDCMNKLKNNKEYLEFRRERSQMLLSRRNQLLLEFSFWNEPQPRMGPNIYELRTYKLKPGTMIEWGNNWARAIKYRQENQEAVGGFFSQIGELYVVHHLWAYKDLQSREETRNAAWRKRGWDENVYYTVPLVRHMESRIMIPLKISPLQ
UniProt Q8N8Q9: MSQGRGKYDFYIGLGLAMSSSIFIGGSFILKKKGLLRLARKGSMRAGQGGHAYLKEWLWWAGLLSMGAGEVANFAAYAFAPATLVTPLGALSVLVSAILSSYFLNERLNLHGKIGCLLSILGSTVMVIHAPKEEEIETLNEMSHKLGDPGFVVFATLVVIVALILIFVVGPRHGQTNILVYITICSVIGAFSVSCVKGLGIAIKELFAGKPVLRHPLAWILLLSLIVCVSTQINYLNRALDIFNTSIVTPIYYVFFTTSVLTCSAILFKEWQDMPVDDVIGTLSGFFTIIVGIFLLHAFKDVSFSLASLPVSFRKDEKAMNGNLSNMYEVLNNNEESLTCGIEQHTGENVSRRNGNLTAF
UniProt Q9Y221: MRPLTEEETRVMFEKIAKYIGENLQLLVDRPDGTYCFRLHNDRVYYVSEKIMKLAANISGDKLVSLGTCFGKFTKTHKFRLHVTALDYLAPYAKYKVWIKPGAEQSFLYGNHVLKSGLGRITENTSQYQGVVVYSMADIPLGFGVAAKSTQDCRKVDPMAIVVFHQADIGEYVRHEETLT
UniProt P18615, whole entry, looked up: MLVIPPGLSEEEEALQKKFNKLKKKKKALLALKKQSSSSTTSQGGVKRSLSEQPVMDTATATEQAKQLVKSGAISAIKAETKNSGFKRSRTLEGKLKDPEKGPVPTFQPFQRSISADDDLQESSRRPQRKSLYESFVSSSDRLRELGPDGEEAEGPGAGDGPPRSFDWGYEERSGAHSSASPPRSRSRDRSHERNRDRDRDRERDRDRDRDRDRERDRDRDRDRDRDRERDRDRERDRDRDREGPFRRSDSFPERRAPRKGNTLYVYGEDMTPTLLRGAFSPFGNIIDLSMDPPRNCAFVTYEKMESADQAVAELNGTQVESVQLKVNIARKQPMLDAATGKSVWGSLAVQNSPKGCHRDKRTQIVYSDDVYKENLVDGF
UniProt Q9NVX2: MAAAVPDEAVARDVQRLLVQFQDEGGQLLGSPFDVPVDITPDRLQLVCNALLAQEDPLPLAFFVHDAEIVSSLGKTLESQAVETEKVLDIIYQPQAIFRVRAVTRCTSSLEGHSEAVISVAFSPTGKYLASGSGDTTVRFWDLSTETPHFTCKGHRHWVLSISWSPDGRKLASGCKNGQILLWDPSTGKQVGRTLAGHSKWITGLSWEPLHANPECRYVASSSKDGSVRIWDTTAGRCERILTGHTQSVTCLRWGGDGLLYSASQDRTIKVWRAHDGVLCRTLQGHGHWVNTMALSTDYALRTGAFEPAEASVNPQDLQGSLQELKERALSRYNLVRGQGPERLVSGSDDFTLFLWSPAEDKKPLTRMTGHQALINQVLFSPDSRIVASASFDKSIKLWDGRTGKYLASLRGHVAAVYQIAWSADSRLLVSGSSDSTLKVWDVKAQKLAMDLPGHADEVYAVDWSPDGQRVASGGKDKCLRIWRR
UniProt Q12857, whole entry, looked up: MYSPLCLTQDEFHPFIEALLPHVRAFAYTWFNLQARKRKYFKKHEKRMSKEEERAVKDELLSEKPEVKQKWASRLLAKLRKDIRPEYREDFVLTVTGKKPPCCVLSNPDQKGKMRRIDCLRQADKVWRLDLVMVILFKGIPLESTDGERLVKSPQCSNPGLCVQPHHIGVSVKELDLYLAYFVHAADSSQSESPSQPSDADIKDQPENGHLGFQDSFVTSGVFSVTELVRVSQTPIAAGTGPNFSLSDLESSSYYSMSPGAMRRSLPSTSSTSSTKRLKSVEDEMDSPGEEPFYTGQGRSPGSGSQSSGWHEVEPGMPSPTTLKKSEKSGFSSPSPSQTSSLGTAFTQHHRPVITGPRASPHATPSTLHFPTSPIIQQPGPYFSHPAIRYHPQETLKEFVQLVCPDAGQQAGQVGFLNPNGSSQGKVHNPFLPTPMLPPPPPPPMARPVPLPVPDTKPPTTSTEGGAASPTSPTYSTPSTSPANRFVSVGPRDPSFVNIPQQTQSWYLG
UniProt Q9UFN0: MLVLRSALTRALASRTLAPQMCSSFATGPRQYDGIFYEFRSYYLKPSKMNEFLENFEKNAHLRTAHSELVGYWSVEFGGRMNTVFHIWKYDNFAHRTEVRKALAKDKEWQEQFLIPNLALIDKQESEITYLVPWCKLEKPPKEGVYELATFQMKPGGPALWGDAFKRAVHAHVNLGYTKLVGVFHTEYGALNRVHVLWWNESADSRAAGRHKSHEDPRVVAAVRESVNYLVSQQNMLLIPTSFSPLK

[1] = compound: C/C(=N\NC(=O)C1=CC(=CC=C1)S(=O)(=O)N2CCOCC2)/C3=C(C=CC(=C3)Cl)O
Outline: as §1

[2] = compound: C1=CC(=C(C=C1Cl)C2=NC3=NC=CN=C3C(=N2)NC4=CC=NC=C4)F
Outline: as §1

[3] = compound: C1=CC(=CC=C1C2=NC3=C(N2)C=C(C=C3)C(=O)N)OC4=CC=C(C=C4)Cl
Outline: as §1

[4] = compound: C1=CC2=C(C=CC(=C2)/C=C\3/C(=O)NC(=NCC4=CC=CS4)S3)N=C1
Outline: as §1

[5] = compound: C1=CC2=NC=CN=C2C=C1/C=C/3\C(=O)NC(=O)S3
Outline: as §1

[6] = compound: C1=CC=C(C=C1)C2=NC(=C(N2)C3=CC=NC=C3)C4=CC(=C(C=C4)Cl)O
Outline: as §1

[7] = compound: C1=CC=C2C(=C1)C3=NNC4=CC=CC(=C43)C2=O
Outline: as §1

[8] = compound: C1CCN(C1)C(=O)NC2=CC=CC(=C2)NC3=NC=C(C(=N3)NCCC4=CN=CN4)Br
Outline: as §1

[9] = compound: C1CN(CCC1(CC2=CC=C(C=C2)Cl)N)C3=NC=NC4=C3C=CN4
Outline: as §1

IRAK-1-4 Inhibitor I = compound: C1COCCN1CCN2C3=CC=CC=C3N=C2NC(=O)C4=CC(=CC=C4)[N+](=O)[O-] [IRAK-1-4 Inhibitor I]
Outline: as §1

ibrutinib = compound: C=CC(=O)N1CCC[C@@H](n2nc(-c3ccc(Oc4ccccc4)cc3)c3c(N)ncnc32)C1 [ibrutinib]
Outline: as §1

[10] = compound: CC(=O)c1cnc2ccc(-c3cc(Cl)c(O)c(Cl)c3)nc2c1N[C@H]1CC[C@H](CN(C)C)CC1
Outline: as §1

ralimetinib = compound: CC(C)(C)Cn1c(N)nc2ccc(-c3[nH]c(C(C)(C)C)nc3-c3ccc(F)cc3)nc21 [ralimetinib]
Outline: as §1

[11] = compound: CC(C)(O)CC(=O)NCCn1ccc2ncnc(Nc3ccc(Oc4cccc(C(F)(F)F)c4)c(Cl)c3)c21
Outline: as §1

[12] = compound: CC(C)C1=C2N=C(C=C(N2N=C1)NCC3=CC=CC=C3)NCCCCCCN
Outline: as §1

[13] = compound: CC(C)C[C@@H](C=O)NC(=O)[C@H](CC(C)C)NC(=O)[C@H](CC(C)C)NC(=O)OCc1ccccc1
Outline: as §1

pinometostat = compound: CC(C)N(C[C@H]1O[C@@H](n2cnc3c(N)ncnc32)[C@H](O)[C@@H]1O)[C@H]1C[C@@H](CCc2nc3cc(C(C)(C)C)ccc3[nH]2)C1 [pinometostat]
Outline: as §1

[14] = compound: CC1=C(C(CC(=O)N1)C2=CC=C(C=C2)C(F)(F)F)C(=O)NC3=C(C=C4C(=C3)C=NN4)F
Outline: as §1

[15] = compound: CC1=C(C2=C(C=C1)C(=O)C3=CC=CC=C3N2CCCN)C
Outline: as §1

Measured: log2 fold change

NFXL1 (UniProt Q6ZNB6)
inactive: erlotinib -0.043 | [1] 0.01 | [2] 0.029 | [3] 0.015 | [4] -0.043 | [5] -0.019 | [6] -0.028 | [7] -0.193 | [8] -0.08 | [9] 0.047 | IRAK-1-4 Inhibitor I 0.025 | ibrutinib 0.003 | [10] 0.014 | ralimetinib 0.014 | [11] -0.004 | [12] 0.157 | [13] 0.021 | pinometostat -0.015 | [14] 0.003 | [15] 0.075

NEMF (UniProt O60524)
inactive: erlotinib -0.055 | [1] -0.113 | [2] -0.59 | [3] 0.027 | [4] -0.043 | [5] -0.014 | [6] -0.031 | [7] 0.034 | [8] 0.01 | [9] -0.278 | IRAK-1-4 Inhibitor I -0.18 | ibrutinib 0.028 | [10] 0.133 | ralimetinib 0.276 | [11] 0.025 | [12] -0.19 | [13] 0.11 | pinometostat 0.408 | [14] -0.049 | [15] -0.092

NPLOC4 isoform 2 (UniProt Q8TAT6)
inactive: erlotinib 0.055 | [1] -0.026 | [2] 0.088 | [3] -0.022 | [4] 0.011 | [5] 0.003 | [6] 0.015 | [7] 0.024 | [8] -0.045 | [9] 0.044 | IRAK-1-4 Inhibitor I 0.04 | ibrutinib -0.01 | [10] -0.008 | ralimetinib -0.053 | [11] -0.028 | [12] 0.034 | [13] -0.063 | pinometostat -0.026 | [14] 0.003 | [15] 0.04

NPM1 (UniProt P06748)
inactive: erlotinib -0.054 | [1] -0.202 | [2] -0.473 | [3] 0.043 | [4] -0.231 | [5] 0.023 | [6] -0.033 | [7] -0.023 | [8] 0.002 | [9] -0.084 | IRAK-1-4 Inhibitor I -0.125 | ibrutinib 0.027 | [10] 0.073 | ralimetinib 0.115 | [11] 0.171 | [12] 0.023 | [13] 0.028 | pinometostat 0.171 | [14] -0.038 | [15] -0.562

NFU1 (UniProt Q9UMS0)
inactive: erlotinib 0.011 | [1] -0.028 | [2] 0.036 | [3] 0.028 | [4] -0.016 | [5] 0.002 | [6] 0.003 | [7] -0.002 | [8] -0.019 | [9] -0.074 | IRAK-1-4 Inhibitor I 0.063 | ibrutinib 0.034 | [10] 0.014 | ralimetinib -0.093 | [11] -0.016 | [12] -0.085 | [13] -0.086 | pinometostat -0.045 | [14] 0.022 | [15] 0.08

NIBAN2 (UniProt Q96TA1)
inactive: erlotinib 0.042 | [1] 0.016 | [2] 0.027 | [3] -0.01 | [4] 0.018 | [5] 0.016 | [6] 0.009 | [7] -0.04 | [8] 0.003 | [9] 0.021 | IRAK-1-4 Inhibitor I 0.026 | ibrutinib -0.02 | [10] -0.12 | ralimetinib -0.022 | [11] -0.048 | [12] 0.043 | [13] -0.009 | pinometostat 0.003 | [14] -0.005 | [15] 0.005

NIPSNAP1 (UniProt Q9BPW8)
inactive: erlotinib 0.032 | [1] 0.075 | [2] -0.005 | [3] 0.114 | [4] 0.155 | [5] -0.084 | [6] 0.071 | [7] 0.088 | [8] 0.005 | [9] 0.081 | IRAK-1-4 Inhibitor I -0.001 | ibrutinib 0.09 | [10] -0.072 | ralimetinib 0.004 | [11] 0.027 | [12] -0.001 | [13] -0.083 | pinometostat -0.023 | [14] -0.016 | [15] 0.019

NIPA2 (UniProt Q8N8Q9)
inactive: erlotinib -0.001 | [1] 0.042 | [2] 0.107 | [3] 0.077 | [4] -0.003 | [5] 0.012 | [6] 0.025 | [7] -0.034 | [8] 0.005 | [9] 0.102 | IRAK-1-4 Inhibitor I 0.033 | ibrutinib 0.008 | [10] -0.058 | ralimetinib 0.159 | [11] -0.081 | [12] 0.036 | [13] 0.053 | pinometostat -0.031 | [14] -0.106 | [15] -0.018

NRBF2 (UniProt Q96F24)
inactive: erlotinib -0.023 | [1] 0 | [2] 0.048 | [3] -0.015 | [4] 0.095 | [5] 0.081 | [6] -0.046 | [7] -0.028 | [8] 0.026 | [9] 0.034 | IRAK-1-4 Inhibitor I 0.007 | ibrutinib -0.009 | [10] 0.002 | ralimetinib -0.04 | [11] 0.004 | [12] 0.016 | [13] 0.005 | pinometostat -0.01 | [14] -0.001 | [15] 0.022

NIP7 (UniProt Q9Y221)
inactive: erlotinib -0.028 | [1] -0.122 | [2] -0.374 | [3] -0.039 | [4] -0.181 | [5] 0.257 | [6] -0.048 | [7] 0.035 | [8] 0.037 | [9] 0.038 | IRAK-1-4 Inhibitor I 0 | ibrutinib 0.069 | [10] 0.151 | ralimetinib 0.099 | [11] 0.066 | [12] 0.166 | [13] 0.077 | pinometostat 0.266 | [14] -0.063 | [15] 0

NELFE isoform 3 (UniProt P18615)
inactive: erlotinib -0.005 | [1] -0.024 | [2] -0.044 | [3] -0.013 | [4] -0.021 | [5] 0.027 | [6] 0.004 | [7] 0 | [8] -0.013 | [9] 0.011 | IRAK-1-4 Inhibitor I -0.013 | ibrutinib -0.011 | [10] -0.139 | ralimetinib -0.061 | [11] 0.009 | [12] -0.057 | [13] 0.149 | pinometostat 0.024 | [14] 0.008 | [15] 0.028

NLE1 (UniProt Q9NVX2)
inactive: erlotinib -0.041 | [1] 0.057 | [2] 0.009 | [3] 0.057 | [4] -0.01 | [5] 0.013 | [6] 0.035 | [7] 0.011 | [8] -0.043 | [9] 0.03 | IRAK-1-4 Inhibitor I 0.029 | ibrutinib 0.034 | [10] 0.026 | ralimetinib -0.007 | [11] 0.029 | [12] 0.054 | [13] -0.034 | pinometostat -0.051 | [14] -0.033 | [15] 0.016

NFIA isoform 4 (UniProt Q12857)
inactive: erlotinib -0.066 | [1] -0.117 | [2] -0.062 | [3] 0.055 | [4] 0.101 | [5] 0.112 | [6] -0.045 | [7] -0.058 | [8] -0.104 | [9] 0.055 | IRAK-1-4 Inhibitor I -0.02 | ibrutinib 0.056 | [10] -0.033 | ralimetinib 0.02 | [11] 0.069 | [12] 0.034 | [13] 0.015 | pinometostat 0.041 | [14] 0.028 | [15] 0.007

NOA1 (UniProt Q8NC60)
inactive: erlotinib 0.133 | [1] 0.038 | [2] -0.283 | [3] -0.008 | [4] 0.11 | [5] 0.056 | [6] -0.034 | [7] 0.073 | [8] 0.081 | [9] -0.015 | IRAK-1-4 Inhibitor I -0.111 | ibrutinib 0.003 | [10] -0.108 | ralimetinib 0.081 | [11] 0 | [12] -0.142 | [13] 0.21 | pinometostat 0.105 | [14] 0.038 | [15] 0.009

Taken from the results shown (4 entries):
NPLOC4 isoform 2 (UniProt Q8TAT6)
inactive: erlotinib 0.055 | [1] -0.026 | [2] 0.088 | [3] -0.022 | [4] 0.011 | [5] 0.003 | [6] 0.015 | [7] 0.024 | [8] -0.045 | [9] 0.044 | IRAK-1-4 Inhibitor I 0.04 | ibrutinib -0.01 | [10] -0.008 | ralimetinib -0.053 | [11] -0.028 | [12] 0.034 | [13] -0.063 | pinometostat -0.026 | [14] 0.003 | [15] 0.04

NPM1 (UniProt P06748)
inactive: erlotinib -0.054 | [1] -0.202 | [2] -0.473 | [3] 0.043 | [4] -0.231 | [5] 0.023 | [6] -0.033 | [7] -0.023 | [8] 0.002 | [9] -0.084 | IRAK-1-4 Inhibitor I -0.125 | ibrutinib 0.027 | [10] 0.073 | ralimetinib 0.115 | [11] 0.171 | [12] 0.023 | [13] 0.028 | pinometostat 0.171 | [14] -0.038 | [15] -0.562

NFU1 (UniProt Q9UMS0)
inactive: erlotinib 0.011 | [1] -0.028 | [2] 0.036 | [3] 0.028 | [4] -0.016 | [5] 0.002 | [6] 0.003 | [7] -0.002 | [8] -0.019 | [9] -0.074 | IRAK-1-4 Inhibitor I 0.063 | ibrutinib 0.034 | [10] 0.014 | ralimetinib -0.093 | [11] -0.016 | [12] -0.085 | [13] -0.086 | pinometostat -0.045 | [14] 0.022 | [15] 0.08

NIBAN2 (UniProt Q96TA1)
inactive: erlotinib 0.042 | [1] 0.016 | [2] 0.027 | [3] -0.01 | [4] 0.018 | [5] 0.016 | [6] 0.009 | [7] -0.04 | [8] 0.003 | [9] 0.021 | IRAK-1-4 Inhibitor I 0.026 | ibrutinib -0.02 | [10] -0.12 | ralimetinib -0.022 | [11] -0.048 | [12] 0.043 | [13] -0.009 | pinometostat 0.003 | [14] -0.005 | [15] 0.005

(listing goes on)

NSMAF (UniProt Q92636)
inactive: erlotinib -0.053 | [1] 0.034 | [2] 0.047 | [3] 0.021 | [4] -0.036 | [5] -0.008 | [6] -0.021 | [7] 0.03 | [8] -0.057 | [9] 0.02 | IRAK-1-4 Inhibitor I 0.03 | ibrutinib 0.014 | [10] 0.021 | ralimetinib 0.004 | [11] -0.003 | [12] -0.008 | [13] -0.008 | pinometostat 0.01 | [14] -0.007 | [15] -0.038

NIPSNAP3A (UniProt Q9UFN0)
inactive: erlotinib 0.004 | [1] -0.002 | [2] 0.023 | [3] 0.015 | [4] -0.005 | [5] 0.029 | [6] -0.043 | [7] 0.031 | [8] 0.003 | [9] 0.033 | IRAK-1-4 Inhibitor I 0.062 | ibrutinib 0.05 | [10] 0.051 | ralimetinib -0.003 | [11] 0.002 | [12] 0.085 | [13] 0.02 | pinometostat -0.01 | [14] 0.006 | [15] -0.007

— the supplement of paper PMC10849652
